PubChem BioAssay AID1259425 – University of Nebraska Medical Center, 2018
Aim: 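Compare each knockdown with KSR1 silencing using changes in marker transcripts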 (primary screen). Cells: HCT116 human colon cancer cells. Reagents: siRNA pool against human genes, 50 nM siRNA. Detection: 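mRNA of six signature genes measured together by branched-DNA assay after 50 nM siRNA pool, blank removed, divided by geometric mean of two housekeeping genes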. Scale: BNIP3L mRNA: higher = more BNIP3L transcript after knockdown; NDRG1 mRNA: higher = more NDRG1 transcript after knockdown.
The whole screen tested about 14,000 reagents; below is an unselected part. Not all columns of the deposit are shown. Not given: the time to read-out.

The first 3 entries, ahead of the listing:
{"target":"COX14","BNIP3L mRNA, set 1":0.0493,"NDRG1 mRNA, set 1":0.179}
{"target":"LRIT1","BNIP3L mRNA, set 1":0.0528,"NDRG1 mRNA, set 1":0.461}
{"target":"DDX49","BNIP3L mRNA, set 1":0.148,"NDRG1 mRNA, set 1":0.29}

Main list, from the first entry:
{"target":"COX14","BNIP3L mRNA, set 1":0.0493,"NDRG1 mRNA, set 1":0.179}
{"target":"LRIT1","BNIP3L mRNA, set 1":0.0528,"NDRG1 mRNA, set 1":0.461}
{"target":"DDX49","BNIP3L mRNA, set 1":0.148,"NDRG1 mRNA, set 1":0.29}
{"target":"EPB41L3","BNIP3L mRNA, set 1":0.0838,"NDRG1 mRNA, set 1":0.287}
{"target":"PDE4C","BNIP3L mRNA, set 1":0.0798,"NDRG1 mRNA, set 1":0.322}
{"target":"ZNF93","BNIP3L mRNA, set 1":0.129,"NDRG1 mRNA, set 1":0.233}
{"target":"TPX2","BNIP3L mRNA, set 1":0.159,"NDRG1 mRNA, set 1":0.356}
{"target":"CEP350","BNIP3L mRNA, set 1":0.0496,"NDRG1 mRNA, set 1":0.159}
{"target":"LORICRIN","BNIP3L mRNA, set 1":0.175,"NDRG1 mRNA, set 1":0.981}
{"target":"DAB2","BNIP3L mRNA, set 1":0.113,"NDRG1 mRNA, set 1":0.407}
{"target":"BZW1","BNIP3L mRNA, set 1":0.106,"NDRG1 mRNA, set 1":0.189}
{"target":"RPF1","BNIP3L mRNA, set 1":0.0808,"NDRG1 mRNA, set 1":0.434}
{"target":"MAGEB4","BNIP3L mRNA, set 1":0.0574,"NDRG1 mRNA, set 1":0.445}
{"target":"GIMAP6","BNIP3L mRNA, set 1":0.267,"NDRG1 mRNA, set 1":0.124}
{"target":"AMD1","BNIP3L mRNA, set 1":0.106,"NDRG1 mRNA, set 1":0.134}
{"target":"SERP1","BNIP3L mRNA, set 1":0.191,"NDRG1 mRNA, set 1":0.236}
{"target":"GSTO1","BNIP3L mRNA, set 1":0.0618,"NDRG1 mRNA, set 1":0.175}
{"target":"SLC33A1","BNIP3L mRNA, set 1":0.0571,"NDRG1 mRNA, set 1":0.168}
{"target":"GPANK1","BNIP3L mRNA, set 1":0.0342,"NDRG1 mRNA, set 1":0.12}
{"target":"CCL15","BNIP3L mRNA, set 1":0.106,"NDRG1 mRNA, set 1":0.194}
{"target":"PIP5K1C","BNIP3L mRNA, set 1":0.073,"NDRG1 mRNA, set 1":0.171}
{"target":"PHF20","BNIP3L mRNA, set 1":0.104,"NDRG1 mRNA, set 1":0.11}
{"target":"EFHD2","BNIP3L mRNA, set 1":0.188,"NDRG1 mRNA, set 1":0.521}
{"target":"THAP9","BNIP3L mRNA, set 1":0.1,"NDRG1 mRNA, set 1":0.15}
{"target":"HMGCS1","BNIP3L mRNA, set 1":0.0819,"NDRG1 mRNA, set 1":0.423}
{"target":"ATG10","BNIP3L mRNA, set 1":0.149,"NDRG1 mRNA, set 1":0.585}
{"target":"BTD","BNIP3L mRNA, set 1":0.137,"NDRG1 mRNA, set 1":0.195}
{"target":"VSIG2","BNIP3L mRNA, set 1":0.131,"NDRG1 mRNA, set 1":0.149}
